These results are taken from PubChem BioAssay AID2685 (National Center for Advancing Translational Sciences (NCATS), 2010).

The other results are listed elsewhere or left out. Further columns of the screen follow, without active or inactive calls. Most of these compounds were active or inconclusive in the main read-out, so they are no random draw. Potencies come from curve fits of mixed quality, noted in brackets.

This test can be described thus: qHTS Assay for Lipid Storage Modulators in Drosophila S3 Cells.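 On cell number change: cells counted by Cell Tracker Red CMTPX staining in the red channel.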 Particulars: BODIPY lipid droplet fluorescence, 18-24 h; for cell number change: measured here: cell count max response, cells fed with added oleic acid. Summed up: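 Drosophila S3 cells got compounds at several concentrations plus oleic acid (400 uM solution). Laser-scanning cytometry with 488 nm excitation read lipid droplets at 500-530 nm and cells at 575-640 nm. Percent activity was relative to 20 uM Triacsin C.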
Background: qHTS replaces the single test concentration by a dilution series.

The mark [1] stands for this setting: measured here: cell number channel AC50, cells fed with added oleic acid.
Setting [2] is: measured here: lipid fluorescence (Fed channel) AC50, cells fed with added oleic acid.

For `CS(=O)(=O)/C(C#N)=C\c1cnc(S(=O)(=O)c2ccccc2)s1`, the cell number change is -72.1%. For the same compound, the AC50 under setting [1] was 5.8 µM [falling, full curve]. The AC50 under setting [2] was 5.17 µM [falling, full curve].

`CCCCNC(=O)CSc1nc2ccc(Nc3nc(N4CCOCC4)nc(N4CCOCC4)n3)cc2s1`: the cell number change amounted to 5.48%. Besides, the AC50 under setting [2] is 0.231 µM [rising, full curve, poor fit].

With `Cc1cc(C)c(C)c(S(=O)(=O)NC(C)C(=O)O)c1C` (configuration not stated), the cell number change is -24.1%. Moreover, the AC50 under setting [2] is 25.9 µM [falling, single point].

With `NC(=O)COC(=O)c1c2c(nc3ccccc13)CCCCC2`, the AC50 is, setting by setting: under setting [1], 0.00517 µM [rising, full curve, poor fit]; under setting [2], 0.146 µM [rising, partial curve, poor fit].

In the case of `Cc1c(C)c2ccc(OCC(=O)N[C@@H](Cc3ccccc3)C(=O)O)cc2oc1=O`, the cell number change came to 33.8%. Also, the AC50 under setting [1] is 29.1 µM [rising, single point]. In addition, the AC50 under setting [2] is 29.1 µM [rising, single point].

As to `C=CCNC(=S)NNC(=O)COc1ccc2cc(Br)ccc2c1`, the cell number change was -22.2%. The AC50 under setting [2] was 0.146 µM [falling, partial curve].

`O=C(Nc1cccc(C(F)(F)F)c1)Oc1ccc(Cl)c2cccnc12`: the AC50 under setting [2] is 4.11 µM [falling, full curve].

As to `Cc1ccccc1C(=O)OC(C)C(=O)NCc1ccc2c(c1)OCO2` (configuration not stated), the cell number change was -1.93%. Further, under setting [2], the AC50 was 5.17 µM [rising, partial curve, poor fit].

For the compound `CC(NC(=O)/C(C#N)=C/c1ccc(N2CCOCC2)cc1)c1ccccc1` (configuration not stated), the cell number change is -19.8%. Moreover, the AC50 under setting [2] was 0.58 µM [rising, single point].

Turning to `O=c1[nH]c(SCc2ccccc2Cl)nc2c1CCC2`, the cell number change was -163%. Also, the AC50 under setting [1] is 23.1 µM [falling, partial curve]. Moreover, the AC50 under setting [2] was 0.116 µM [falling, full curve, poor fit].

As for `Cn1ncc2c(NNC(=O)Cc3cccc4ccccc34)ncnc21`, the cell number change was -14.7%. Further, under setting [2], the AC50 is 4.11 µM [falling, full curve, poor fit].

Turning to `CC(=O)NC(CC(=O)NCCCn1ccc2ccccc21)c1ccccc1` (configuration not stated), the cell number change was found to be 8.57%. Under setting [1], the AC50 is 0.326 µM [rising, partial curve, poor fit].

For the compound `O=C(COC(=O)/C=C/c1cccs1)NC1CC1`, the cell number change was determined as 14%.

For `O=C(Nc1c(C(=O)N2CCOCC2)cnn1-c1ccccc1)c1ccccc1F`, the cell number change is 6.58%.

In the case of `Cc1ccc(/C=N/NC(=O)c2nnn(-c3nonc3N)c2CN(C)C2CCCCC2)cc1`, the cell number change was 2.67%. Under setting [2], the AC50 is 29.1 µM [falling, single point].

With `Cn1cc(S(=O)(=O)NCCc2ccccc2)c(=O)n(C)c1=O`, the cell number change was -23.9%. Besides, the half-maximal activity concentration (AC50) under setting [2] was 16.4 µM [falling, single point].

`CCn1c(CN2CCOCC2)nnc1SCC(=O)Nc1ccc(C)cc1`: the cell number change was determined as 28.6%. Besides, the AC50 under setting [2] was 20.6 µM [rising, single point].

`COc1ccc(NC(=O)CCN2C(=O)C3C4C=CC(C4)C3C2=O)cc1` (configuration not stated): the cell number change was 107%.

Turning to `CN(C)CCCNS(=O)(=O)c1ccc(Oc2ncc(C(F)(F)F)cc2Cl)cc1`, the cell number change was -58.6%. Further, under setting [1], the AC50 was 29.1 µM [falling, single point]. Also, the AC50 under setting [2] was 29.1 µM [falling, single point].

Take `COc1cc(/C=N\Nc2nncn2N)ccc1OC(C)=O`: the cell number change was -5.8%.

Turning to `O=C1c2ccccc2S(=O)(=O)N1Cc1ccccc1[N+](=O)[O-]`, the cell number change came out at 14.5%. Also, the AC50 under setting [2] was 3.26 µM [rising, single point].

Consider `O=C(Cn1c(=S)[nH]c2ccccc2c1=O)N1CCc2ccccc2C1`, for which the cell number change worked out at 20.4%.

With `O=C(COC(=O)CCC(=O)c1ccc(Cl)cc1)NCCc1ccccc1`, the cell number change is -5.82%. For the same compound, under setting [1], the AC50 is 0.731 µM [falling, single point]. Besides, the AC50 under setting [2] is 0.651 µM [falling, single point].

Consider `COc1ccc(-c2cc(C(=O)NCc3ccc(Cl)cc3)no2)cc1OC`, for which the cell number change is 15.9%. For the same compound, under setting [2], the AC50 was 25.9 µM [rising, single point].

On to `O=C(CN1C(=O)C2CC=CCC2C1=O)Nc1ccc(S(=O)(=O)Nc2nccs2)cc1` (configuration not stated), for which the cell number change is -17.3%. Besides, under setting [2], the AC50 is 32.6 µM [falling, single point].

Turning to `Cc1cc(C)cc(NC(=S)N2CCC(NC(=O)C3CCCCC3)CC2)c1`, the cell number change turned out to be 38.3%. Besides, under setting [1], the AC50 is 1.16 µM [rising, partial curve].

As for `COc1ccccc1CCC(=O)Nc1cccc(S(=O)(=O)N2CCCC2)c1`, the cell number change turned out to be 32.7%. In addition, the AC50 under setting [1] was 35.5 µM [rising, single point].

Turning to `COc1cccc(/C=N/NC(=S)Nc2cccc(S(=O)(=O)N(C)C)c2)c1`, the cell number change stood at 16%. Besides, under setting [2], the AC50 is 18.4 µM [rising, single point].

In the case of `CCN(CC(=O)N1CCN(Cc2ccccc2)CC1)S(=O)(=O)c1ccc(C)cc1`, the AC50 under setting [2] was 29.1 µM [rising, single point].

As for `CC(C)Sc1nc2ncnc(N)c2[nH]1`, the cell number change worked out at 8.68%.

`COc1ccc(NC(=O)C(NC(=O)OC(C)(C)C)C(C)OCc2ccccc2)cc1` (configuration not stated): the cell number change was -24.4%. The AC50 under setting [2] was 20.6 µM [falling, single point].

As for `CCOc1ccc(NC(=O)CCC(=O)N/N=C(\C)c2cccs2)cc1`, the AC50 is 1.03 µM [rising, full curve, poor fit] under setting [1] and 18.4 µM [rising, single point] under setting [2].

On to `COc1ccc(C2c3[nH]c4ccccc4c3C[C@H]3C(=O)N(C4CCN(Cc5ccccc5)CC4)CC(=O)N23)c(OC)c1` (some centres not stated), for which the cell number change came to 23.6%.

`O=C(CCCCCN1C(=O)[C@@H]2Cc3ccccc3CN2C1=O)Nc1cccc(F)c1`: under setting [2], the AC50 is 18.4 µM [falling, single point].

As for `Cc1cc(Br)ccc1NC(=O)CCS(=O)(=O)c1cccc2nonc12`, the cell number change is 21.9%.

As to `Cc1ccc(C)c(/C=N/NC(=S)NC(C)C)c1`, the cell number change amounted to 0.167%.

As to `CC1CCN(C(=O)c2ccc(NS(C)(=O)=O)cc2)CC1`, the cell number change was found to be 5.01%. The AC50 under setting [1] was 0.461 µM [rising, single point]. In addition, the AC50 under setting [2] was 0.58 µM [rising, partial curve, poor fit].

`O=C(c1cccs1)N1CCN(Cc2cccnc2)CC1`: the cell number change stood at 2.03%. The AC50 under setting [2] was 20.6 µM [rising, single point].

`CCC(=O)N1CCN(c2ccccc2NC(=O)c2cccc(C)c2)CC1`: under setting [2], the AC50 was 0.517 µM [rising, single point].

For `O=C1c2ccccc2C(=O)N1Cc1nc2ccccc2o1`, the cell number change was -18.8%.

What is called AC50 is the midpoint of the concentration-response curve, whichever way the signal moves. The low end stands for greater potency, the high end for weaker potency.
